This note sets out measurements from PMC8595342.

Residue numbers refer to the chain shown, from its start. No constants are given. Whether binding was seen depends on the method and setting. Binding seen in cells or lysates may run through a third protein. Some binding calls cover weakened binding; strength is not graded here. Tags and fused reporters may be left off the sequences shown.

What all share (test): co-IP; Flag beads on lysates of transfected HEK293T cells (cell line of Supplemental Fig. 4 not shown); TAP lysis buffer (20 mM Tris-HCl pH 7.4, 0.5% NP40, 150 mM NaCl, 1 mM NaF, 1 mM Na3VO4, 1 mM EDTA), 5 h at 4 °C; immunoblot; full medium, in some panels also Torin or EBSS, siSCFD1, co-expressed HA-SCFD1 or Myc-mTOR
Test [1] deals with T1, Flag-VAMP8^S55A, expressed in HEK293T cells (UniProt Q9BV40).
T1 sequence: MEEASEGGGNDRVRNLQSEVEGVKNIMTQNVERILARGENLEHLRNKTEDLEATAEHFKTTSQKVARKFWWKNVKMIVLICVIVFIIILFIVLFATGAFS

In test [2] the target is T2, Flag-VAMP8^T48A, expressed in HEK293T cells (UniProt Q9BV40).
T2 sequence: T1 sequence with T48A, A55S

The target of test [3] is T3, Flag-VAMP8 (wild type), expressed in HEK293T cells, Q9BV40.
T3 chain: T1 sequence with A55S
The note with it: remark: other sources report otherwise.

As for “endogenous STX17 (Syntaxin 17) (from UniProt P56962 1-302)”, the binding result in test [1] and in test [2] was “binds” throughout.

B1: endogenous STX17 (Syntaxin 17), P56962 1-302 (protein)
chain: MSEDEEKVKLRRLEPAIQKFIKIVIPTDLERLRKHQINIEKYQRCRIWDKLHEEHINAGRTVQQLRSNIREIEKLCLKVRKDDLVLLKRMIDPVKEEASAATAEFLQLHLESVEELKKQFNDEETLLQPPLTRSMTVGGAFHTTEAEASSQSLTQIYALPEIPQDQNAAESWETLEADLIELSQLVTDFSLLVNSQQEKIDSIADHVNSAAVNVEEGTKNLGKAAKYKLAALPVAGALIGGMVGGPIGLLAGFKVAGIAAALGGGVLGFTGGKLIQRKKQKMMEKLTSSCPDLPSQTDKKCS
For the molecule B1, in test [3], the binding entry is on record as “binds”.
